Experimental data from the supplement of paper PMC8728848.
This is one part of the list.

Legend:
Experiment in all cases: glycan array binding signal (z-score within array); higher = stronger binding
Conditions in all cases: glycan notation: IUPAC condensed, linker removed
GlcNAc(b1-3)Man = target: GlcNAc(b1-3)Man
Procedure, shortened: (§1)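 Columns mapping to the same glycan were averaged after glycan names were converted to IUPAC-condensed notation. The data come from 3228 arrays in the Consortium for Functional Glycomics database, limited to those with an available protein sequence. Binding is reported as a within-array Z-score averaged across arrays of one protein sequence and across linkers.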

[1] = target: GlcNAc(b1-3)[GlcNAc(b1-4)][GlcNAc(b1-6)]GlcNAc
Procedure, shortened: as §1

[2] = target: GlcNAc(b1-3)[GlcNAc(b1-6)]Gal(b1-4)GlcNAc
Procedure, shortened: as §1

[3] = target: GlcNAc(b1-3)[GlcNAc(b1-6)]GalNAc
Procedure, shortened: as §1

[4] = target: GlcNAc(b1-4)Gal(b1-4)GlcNAc
Procedure, shortened: as §1

GlcNAc(b1-4)GlcNAc = target: GlcNAc(b1-4)GlcNAc
Procedure, shortened: as §1

[5] = target: GlcNAc(b1-4)GlcNAc(b1-4)GlcNAc
Procedure, shortened: as §1

[6] = target: GlcNAc(b1-4)GlcNAc(b1-4)GlcNAc(b1-4)GlcNAc(b1-4)GlcNAc
Procedure, shortened: as §1

[7] = target: GlcNAc(b1-4)GlcNAc(b1-4)GlcNAc(b1-4)GlcNAc(b1-4)GlcNAc(b1-4)GlcNAc
Procedure, shortened: as §1

[8] = target: GlcNAc(b1-4)[GlcNAc(b1-6)]GalNAc
Procedure, shortened: as §1

[9] = target: GlcNAc(b1-6)Gal(b1-4)GlcNAc
Procedure, shortened: as §1

GlcNAc(b1-6)GalNAc = target: GlcNAc(b1-6)GalNAc
Procedure, shortened: as §1

[10] = target: GlcNAc6S(b1-3)Gal(b1-4)GlcNAc
Procedure, shortened: as §1

Kdn(a2-3)Gal(b1-3)GalNAc = target: Kdn(a2-3)Gal(b1-3)GalNAc
Procedure, shortened: as §1

Kdn(a2-3)Gal(b1-3)GlcNAc = target: Kdn(a2-3)Gal(b1-3)GlcNAc
Procedure, shortened: as §1

Kdn(a2-3)Gal(b1-4)Glc = target: Kdn(a2-3)Gal(b1-4)Glc
Procedure, shortened: as §1

Kdn(a2-3)Gal(b1-4)GlcNAc = target: Kdn(a2-3)Gal(b1-4)GlcNAc
Procedure, shortened: as §1

[11] = target: Kdn(a2-3)Gal(b1-4)[Fuc(a1-3)]GlcNAc
Procedure, shortened: as §1

Kdn(a2-6)Gal(b1-4)GlcNAc = target: Kdn(a2-6)Gal(b1-4)GlcNAc
Procedure, shortened: as §1

[12] = target: Man(a1-2)Man(a1-2)Man(a1-3)Man
Procedure, shortened: as §1

[13] = target: Man(a1-2)Man(a1-2)Man(a1-6)[Man(a1-3)]Man
Procedure, shortened: as §1

Man(a1-2)Man(a1-3)Man = target: Man(a1-2)Man(a1-3)Man
Procedure, shortened: as §1

[14] = target: Man(a1-2)Man(a1-3)[Man(a1-2)Man(a1-6)]Man
Procedure, shortened: as §1

[15] = target: Man(a1-2)Man(a1-3)[Man(a1-2)Man(a1-6)]Man(a1-6)[Man(a1-2)Man(a1-2)Man(a1-3)]Man
Procedure, shortened: as §1

[16] = target: Man(a1-2)Man(a1-3)[Man(a1-2)Man(a1-6)]Man(a1-6)[Man(a1-2)Man(a1-2)Man(a1-3)]Man(b1-4)GlcNAc(b1-4)GlcNAc
Procedure, shortened: as §1

[17] = target: Man(a1-2)Man(a1-3)[Man(a1-6)]Man(a1-6)[Man(a1-2)Man(a1-3)]Man(b1-4)GlcNAc(b1-4)GlcNAc
Procedure, shortened: as §1

[18] = target: Man(a1-2)Man(a1-6)[Man(a1-3)]Man(a1-6)[Man(a1-2)Man(a1-2)Man(a1-3)]Man
Procedure, shortened: as §1

[19] = target: Man(a1-2)Man(a1-6)[Man(a1-3)]Man(a1-6)[Man(a1-2)Man(a1-2)Man(a1-3)]Man(b1-4)GlcNAc(b1-4)GlcNAc
Procedure, shortened: as §1

Man(a1-3)[Man(a1-6)]Man = target: Man(a1-3)[Man(a1-6)]Man
Procedure, shortened: as §1

[20] = target: Man(a1-3)[Man(a1-6)]Man(a1-6)[Man(a1-2)Man(a1-3)]Man(b1-4)GlcNAc(b1-4)GlcNAc
Procedure, shortened: as §1

[21] = target: Man(a1-3)[Man(a1-6)]Man(a1-6)[Man(a1-3)]Man
Procedure, shortened: as §1

[22] = target: Man(a1-3)[Man(a1-6)]Man(a1-6)[Man(a1-3)]Man(b1-4)GlcNAc(b1-4)GlcNAc
Procedure, shortened: as §1

[23] = target: Man(a1-3)[Man(a1-6)]Man(b1-4)GlcNAc(b1-4)GlcNAc
Procedure, shortened: as §1

[24] = target: Man(a1-3)[Man(a1-6)]Man(b1-4)GlcNAc(b1-4)[Fuc(a1-6)]GlcNAc
Procedure, shortened: as §1

Man(a1-6)Man = target: Man(a1-6)Man
Procedure, shortened: as §1

Man(b1-4)GlcNAc = target: Man(b1-4)GlcNAc
Procedure, shortened: as §1

MurNAc(b1-4)GlcNAc = target: MurNAc(b1-4)GlcNAc
Procedure, shortened: as §1

Neu5Ac(a2-3)Gal = target: Neu5Ac(a2-3)Gal
Procedure, shortened: as §1

B1: PX9961K-bvu-480-28-480 (Bacteroides vulgatus) (protein)
chain: NKIPTTMAFRTVTDVDNAVNGLYDLMSGSGYYGAAMFAYGDMKGDDMQSSEESGVCNTCYMFNHRPNSLNAGSLWGRPFYILREAWNILNAIAEGKIESGDEKKLNALKGETMAVIALCQFDLTRCFGYPYTKDKGASLGAPLIDHLVGTYENPPRSTVAQAYDFIIETLEEAVTLMSEEKNNGRMNKYAARALLARIYLYHDDNRKAFDLADQLIKDADTSGSYALYPHEKYVAAWSVEAKFGSESFFEIANSVDDTPGRDSWGYLLNWYGYQKGFVTQKYAEQMLADPGDVRGHLLEENKYAGKTVWWLYKLRGTDLKTAPLECNNVVLRLSEVYLIAAEAGCKLGGDAAVQGLGYLNEIVKRGNPDNEVTMADYTLDRVLDERSKELVGEGHRFFDLLRNGKTIVRKGGYHLPSVDEEVDWDFYKCVLPIPEDQFIFSPEMEQNPGYPKN
With B1 the “glycan array binding signal (z-score)” value (GlcNAc(b1-3)Man) was -0.574, the “glycan array binding signal (z-score)” value [1] was 0.078 and the “glycan array binding signal (z-score)” value [2] was -0.687. For the same binder, the “glycan array binding signal (z-score)” value [3] was -0.501, the “glycan array binding signal (z-score)” value [4] was -0.298 and the “glycan array binding signal (z-score)” value (GlcNAc(b1-4)GlcNAc) was -0.088. The “glycan array binding signal (z-score)” value [5] was 0.093, the “glycan array binding signal (z-score)” value [6] was -0.583 and the “glycan array binding signal (z-score)” value [7] was -0.762. The “glycan array binding signal (z-score)” value [8] was 0.135, the “glycan array binding signal (z-score)” value [9] was 0.058 and the “glycan array binding signal (z-score)” value (GlcNAc(b1-6)GalNAc) was -0.312. For the same binder, the “glycan array binding signal (z-score)” value [10] was 1.58, the “glycan array binding signal (z-score)” value (Kdn(a2-3)Gal(b1-3)GalNAc) was -0.16 and the “glycan array binding signal (z-score)” value (Kdn(a2-3)Gal(b1-3)GlcNAc) was 0.083. The “glycan array binding signal (z-score)” value (Kdn(a2-3)Gal(b1-4)Glc) was 0.035, the “glycan array binding signal (z-score)” value (Kdn(a2-3)Gal(b1-4)GlcNAc) was -0.958 and the “glycan array binding signal (z-score)” value [11] was -0.426. For the same binder, the “glycan array binding signal (z-score)” value (Kdn(a2-6)Gal(b1-4)GlcNAc) was 0.278, the “glycan array binding signal (z-score)” value [12] was -0.841 and the “glycan array binding signal (z-score)” value [13] was 0.141. The “glycan array binding signal (z-score)” value (Man(a1-2)Man(a1-3)Man) was -0.335, the “glycan array binding signal (z-score)” value [14] was -0.393 and the “glycan array binding signal (z-score)” value [15] was -0.299. For the same binder, the “glycan array binding signal (z-score)” value [16] was 0.437, the “glycan array binding signal (z-score)” value [17] was -0.959 and the “glycan array binding signal (z-score)” value [18] was -0.615. For the same binder, the “glycan array binding signal (z-score)” value [19] was -1.13, the “glycan array binding signal (z-score)” value (Man(a1-3)[Man(a1-6)]Man) was 0.753 and the “glycan array binding signal (z-score)” value [20] was -0.245. For the same binder, the “glycan array binding signal (z-score)” value [21] was 2.06, the “glycan array binding signal (z-score)” value [22] was 0.139 and the “glycan array binding signal (z-score)” value [23] was -0.23. The “glycan array binding signal (z-score)” value [24] was -0.601, the “glycan array binding signal (z-score)” value (Man(a1-6)Man) was 0.297 and the “glycan array binding signal (z-score)” value (Man(b1-4)GlcNAc) was -0.55. The “glycan array binding signal (z-score)” value (MurNAc(b1-4)GlcNAc) was 0.833 and the “glycan array binding signal (z-score)” value (Neu5Ac(a2-3)Gal) was -0.477.
